Assay [1] addresses T1, extracellular domain of murine IL-12Rβ1 (murine) (UniProt Q60837).
T1 sequence (looked up): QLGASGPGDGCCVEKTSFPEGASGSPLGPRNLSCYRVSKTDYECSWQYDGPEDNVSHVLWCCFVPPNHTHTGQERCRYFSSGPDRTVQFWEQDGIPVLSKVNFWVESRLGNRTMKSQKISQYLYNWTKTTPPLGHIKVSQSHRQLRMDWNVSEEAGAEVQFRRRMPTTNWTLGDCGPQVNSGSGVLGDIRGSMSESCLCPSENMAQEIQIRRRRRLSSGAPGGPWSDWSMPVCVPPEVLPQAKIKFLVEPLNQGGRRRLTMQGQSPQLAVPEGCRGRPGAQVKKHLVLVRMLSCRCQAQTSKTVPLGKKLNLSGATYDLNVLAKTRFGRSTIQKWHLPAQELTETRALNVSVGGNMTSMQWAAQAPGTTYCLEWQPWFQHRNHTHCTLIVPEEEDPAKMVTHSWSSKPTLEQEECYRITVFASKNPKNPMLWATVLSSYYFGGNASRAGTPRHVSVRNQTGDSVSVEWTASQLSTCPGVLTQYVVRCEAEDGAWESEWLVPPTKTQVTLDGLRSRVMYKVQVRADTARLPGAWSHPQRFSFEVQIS
As to the kind of experiment: gel filtration chromatography, co-injection.

By UniProt entry, the sequences of proteins in these tests, tags left out. Where a name states a change or a piece, a line headed by the entry shows the natural chain unless it says otherwise.
UniProt Q9NPF7: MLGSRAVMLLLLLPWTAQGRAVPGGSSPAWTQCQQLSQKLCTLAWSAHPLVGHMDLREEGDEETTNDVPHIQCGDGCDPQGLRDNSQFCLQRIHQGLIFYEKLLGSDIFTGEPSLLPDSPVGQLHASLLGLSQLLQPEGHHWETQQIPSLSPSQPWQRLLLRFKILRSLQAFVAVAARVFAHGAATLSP

Assay [2] has as its target T1, extracellular domain of murine IL-12Rβ1 (murine). Description: gel filtration, Coomassie gel of fractions.

These are yes or no findings as the source states them, for the method shown. Some binding calls cover weakened binding; strength is not graded here.

For the substance “IL-23 (p19/p40 heterodimer) (from UniProt Q9NPF7 20-189; P29460 23-328) (ligand)”, the binding result in assay [1] and in assay [2] was “binds” in each case.

The values are drawn from US20120269765A1.
